Laboratory results from article doi:10.1101/858225.
These are yes or no findings as the source states them, for the method shown. Some entries that bind do so weakly or less than the wild type. Sequences can lack the tags named with a protein.

Sequences of proteins named here, by UniProt entry; tags and fusion partners are left off.
UniProt Q68Y81, whole entry: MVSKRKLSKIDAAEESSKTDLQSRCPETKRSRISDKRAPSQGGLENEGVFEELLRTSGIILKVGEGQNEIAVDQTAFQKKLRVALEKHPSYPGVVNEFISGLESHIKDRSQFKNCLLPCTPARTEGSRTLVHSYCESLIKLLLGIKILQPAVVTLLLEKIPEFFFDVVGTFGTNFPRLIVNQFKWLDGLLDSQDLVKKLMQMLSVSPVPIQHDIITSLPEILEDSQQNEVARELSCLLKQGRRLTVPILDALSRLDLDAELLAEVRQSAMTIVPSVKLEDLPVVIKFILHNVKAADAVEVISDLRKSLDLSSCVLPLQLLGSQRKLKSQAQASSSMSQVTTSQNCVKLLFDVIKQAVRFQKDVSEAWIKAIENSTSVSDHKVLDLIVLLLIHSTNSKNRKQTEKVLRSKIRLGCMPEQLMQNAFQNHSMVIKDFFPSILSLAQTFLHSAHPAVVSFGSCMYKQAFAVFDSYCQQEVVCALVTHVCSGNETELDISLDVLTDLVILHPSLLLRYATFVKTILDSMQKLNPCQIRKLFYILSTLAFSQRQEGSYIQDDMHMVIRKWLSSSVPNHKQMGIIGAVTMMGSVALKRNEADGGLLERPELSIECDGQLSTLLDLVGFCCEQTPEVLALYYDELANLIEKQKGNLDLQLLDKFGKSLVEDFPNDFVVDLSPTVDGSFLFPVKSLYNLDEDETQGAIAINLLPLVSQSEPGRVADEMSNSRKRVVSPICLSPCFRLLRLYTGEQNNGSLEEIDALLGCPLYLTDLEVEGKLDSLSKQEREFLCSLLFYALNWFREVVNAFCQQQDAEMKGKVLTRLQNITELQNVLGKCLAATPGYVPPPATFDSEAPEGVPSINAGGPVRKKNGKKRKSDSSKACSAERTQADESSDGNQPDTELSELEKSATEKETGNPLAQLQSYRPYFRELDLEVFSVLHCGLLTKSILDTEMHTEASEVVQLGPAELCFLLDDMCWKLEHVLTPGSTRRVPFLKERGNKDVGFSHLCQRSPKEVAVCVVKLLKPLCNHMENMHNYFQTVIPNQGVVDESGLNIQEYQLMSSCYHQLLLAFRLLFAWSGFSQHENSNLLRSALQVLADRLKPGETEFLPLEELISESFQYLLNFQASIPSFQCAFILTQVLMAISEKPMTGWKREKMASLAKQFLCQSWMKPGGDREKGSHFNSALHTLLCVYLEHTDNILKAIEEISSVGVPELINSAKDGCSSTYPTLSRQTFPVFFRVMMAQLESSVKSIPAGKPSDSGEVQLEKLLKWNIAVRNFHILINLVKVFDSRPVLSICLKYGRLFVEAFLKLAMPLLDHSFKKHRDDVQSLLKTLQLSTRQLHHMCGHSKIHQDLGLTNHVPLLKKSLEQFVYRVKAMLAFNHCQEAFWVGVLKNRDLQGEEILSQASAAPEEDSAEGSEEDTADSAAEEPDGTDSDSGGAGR

B1: Gallus gallus FANCI (untagged, from the co-expressed D2-I complex) (protein, UniProt B0I564 1-1338)
chain: MAQRILQLAAEGSPERLQEALQGLTEGELGDMVTRQALRGRETAALLKGIFKGSPCSQQSGVLRRLQVYKHCVSLVESGDLHVGKVSEIIGLLMLEARQLPGHALAELATLFVEVIKRGSLSNGKSLELFSTVLTALSNSKESLAYGKGELNGEEFKKQLINTLCSSKWDPQCVIHLANMFRDIPLSGEELQFVVEKVLRMFSKLDLQEIPPLVYQLLLLSAKGSKKTVLEGIISFFNQLDKRQKEEQRVPQSADLEVATVPLDQLRHVEGTVILHIVSAINLDQDIGEELIKHLKTEQQKDPGKALCPFSVSLLLSTAVKHRLQEQIFDFLKTSITRSCKDLQILQASKFLQDLCPQQYDVTAVILEVVKNSAFGWDHVTQGLVDLGFSLMESYEPKKSFGGKAAETNLGLSKMPAQQACKLGASILLETFKVHEPIRSDILEQVLNRVLTKAASPVSHFIDLLSNIVVSAPLVLQNSSSRVTETFDNLSFLPIDTVQGLLRAVQPLLKVSMSVRDSLILVLQKAIFSRQLDARKAAVAGFLLLLRNFKILGSLTSSQCSQAIGATQVQADVHACYNSAANEAFCLEILGSLRRCLSQQADVRLMLYEGFYDVLRRNSQLASSIMETLLSQIKQYYLPQQDLLPPLKLEGCIMAQGDQIFLQEPLAHLLCCIQHCLAWYKSTVHLCKGAEDEEEEEDVGFEQNFEEMLESVTRRMIKSELEDFELDKSADFSPSSGVGVKNNIYAIQVMGICEVLIEYNFKIGNFSKNKFEDVLGLFTCYNKLSEILKEKAGKNKSTLGNRIARSFLSMGFVSTLLTALFRDNAQSHEESLAVLRSSTEFMRYAVSVALQKVQQLEEMGQTDGPDGQNPEKMFQNLCKITRVLLWRYTSIPTAVEESGKKKGKSISLLCLEGLLRIFNTMQQLYAARIPQFLQALDITDGDAEEADINVTEKAAFQIRQFQRSLVNQLSSAEDDFNSKETQLLITILSTLSKLLDPGSQQFLQFLTWTVKICKENALEDLSCCKGLLTLLFSLHVLYKSPVSLLRELAQDIHACLGDIDQDVEIESRSHFAIVNVKTAAPTVCLLVLGQADKVLEEVDWLIKRLTILGSDTSEDSTQASNQTQALEKGVILQLGTLLTVFHELVQTALPAGSCVDSLLRSLSKTYAILTSLIKHYIQACRSTSNTVPGRLEKLVKLSGSHLTPQCYSFITYVQNIHSESLSFAEEKKKKKKEDETAVVSTVMAKVLRDTKPIPNLIFAIEQYEKFLIHLSKKSKVNLMQYMKLSTSRDFRINASMLDSVLQEQNTEDAENEPDNNQSGTAEQPDENQEPQKKRRRKK
B2: His-tagged Gallus gallus FANCI (expressed alone) (protein, UniProt B0I564 1-1338)
chain: B1 chain

Assays:
[1] = molecular target: Gallus gallus FANCD2 (untagged, from the co-expressed D2-I complex) (Gallus gallus) (UniProt Q68Y81); assay: cryo-EM structure
[2] = molecular target: His-tagged Gallus gallus FANCI (expressed alone) (Gallus gallus) (UniProt B0I564); assay: SEC

Binder | binding [1] | binding [2]
B1 | binds | 
B2 |  | no binding (tested: 1 µM)
